This is one part of the list. Potency and affinity values are given separately.

This assay concerns Acinetobacter baumannii. The conditions noted are these: Concentration 20 uM; ASSAY_TEST Inhibition of Bacterial Growth; detection method Absorption (OD600); MEDIA CAMHB; plate type 384well; NBS; CORNING #3640; time 18 hr.
Regarding `O=C(OCc1ccccc1)N1CCC(c2cc(-c3ccncc3)c(-c3ccc(F)cc3)[nH]2)CC1`, the Inhibition (as a rule, the relative decrease from the control value, in per cent) is on record as 3.73%.

Take `O=C(Nc1nc(-c2ccccn2)cs1)c1cncn1-c1ccccc1`: the Inhibition came to 11.12%.

For the compound `CC(C)c1ncc(-c2ccncc2)c([C@H]2CC[C@H](CNC(=O)c3cccnc3)CC2)n1`, the Inhibition was 12.7%.

`O=C(Nc1ccccc1-c1nc2c(C(=O)O)cccc2o1)c1ccccc1`: the Inhibition amounted to 4.07%.

Regarding `Cc1ccc(S(=O)(=O)n2cc(-c3ccnc(N)c3)c3cc(Br)cnc32)cc1`, the Inhibition is 2.14%.

Turning to `O=C(Nc1nnc(S)s1)c1cc(Br)ccc1Cl`, the Inhibition is 12.11%.

Take `O=C(Nc1ccc(F)c(-c2nc3cc(-c4ccccc4)cnc3[nH]2)c1)N1CCCC1`: the Inhibition is given as 9.18%.

Turning to `OC[C@H]1O[C@@H](n2c3ccc(Cl)cc3c3c(-c4cc5ccccc5o4)ncnc32)C(O)[C@H]1O` (some centres not stated), the Inhibition is recorded as 14.45%.

`Cc1noc(C)c1COc1cccc(C(=O)N=c2[nH]cccc2C)c1`: the Inhibition is given as 9.22%.

Regarding `COc1cccc(OCC(=O)c2ccc(Br)cc2)c1`, the Inhibition is recorded as -1.67%.

Consider `CCC(Sc1nc2ccccc2o1)C(=O)Nc1nccs1` (configuration not stated), for which the Inhibition is given as 9.34%.

For `O=C(C(Cc1c[nH]c2ccccc12)NS(=O)(=O)c1ccc(Cl)cc1)N1CCCCC1` (configuration not stated), the Inhibition was 6.8%.

For the compound `N#CCN(CCCCN1CCN(c2ccc(F)cc2)CC1)C(=O)OCc1ccccc1`, the Inhibition is reported as 7.12%.

For `COc1ccc2nc(C)cc(OCC(=O)Nc3ccccc3OC)c2c1`, the Inhibition was determined as 13.7%.

In the case of `COc1ccc(-c2cc(NC(=O)c3ccc(F)cc3Cl)ccc2OC)cc1`, the Inhibition worked out at 1.84%.

With `Cc1cc2ccccc2n1CC(=O)N1CC(C(=O)N2CCCCC2)Oc2ccccc21` (configuration not stated), the Inhibition was determined as 12.36%.

Consider `CC1CS(=O)(=O)CCN1/N=C/c1ccc([N+](=O)[O-])o1` (configuration not stated) [NIFURTIMOX], for which the Inhibition was determined as 12.66%.

As to `N#Cc1ccc(-c2cnc(N)c(-c3ccc(C(N)=O)cc3)n2)cc1`, the Inhibition is on record as 12.16%.

Turning to `O=C(NC1CCN(c2ccnc3ccccc23)C1)c1cccc(C(F)(F)F)c1` (configuration not stated), the Inhibition worked out at 17.29%.

For the compound `Nc1ncnc2c1c(-c1cnc3ccccc3c1)nn2CC1CCNCC1`, the Inhibition is listed as 8.81%.

As to `CC(C)C(C(=O)Nc1ccc(S(=O)(=O)N(C)C)cc1)c1ccc(Cl)cc1` (configuration not stated), the Inhibition is on record as 1.48%.

With `OCc1ccc(-c2cncc(Nc3cccc(Cl)c3)c2)cc1`, the Inhibition is on record as -6.21%.

Regarding `CC(=O)Nc1ccc(NC(=O)c2cc(-c3cc(Cl)ccc3O)n[nH]2)cc1`, the Inhibition was determined as 9.68%.

For the compound `c1ccc2c(c1)CN(CC1CC1)CC1(CCN(Cc3c[nH]c4cnccc34)CC1)O2`, the Inhibition came out at 8.27%.

Regarding `CCS(=O)(=O)N(Cc1ccco1)Cc1cc2ccc(C)cc2nc1O`, the Inhibition turned out to be 3.8%.

On to `O=C(c1ccc(F)cc1)N(CCNc1ccccc1)c1ccccc1`, for which the Inhibition came to 3.31%.

`CCCCOC(=O)Nc1cc2nc(C3CCCCC3)[nH]c2cc1N1CCCC1`: the Inhibition turned out to be 17.07%.

As for `Cc1cccc(Cn2ccc(NC(=O)c3ccc4c(c3)OCO4)n2)c1`, the Inhibition worked out at 8.05%.

Regarding `COc1ccc(C(=N)N)cc1-c1cn(-c2ccc(C(=N)N)cc2)nn1.Cl.Cl`, the Inhibition is on record as 9.03%.

As to `Nc1cccnc1Nc1ccc(Cl)cc1`, the Inhibition is reported as 8.68%.

For the compound `COc1ccc(Oc2ccc([C@@H](C)N(C)c3ncc4c(N)nc(N)nc4n3)cc2)cc1`, the Inhibition stood at 12.77%.

For the compound `CCOC(=O)c1noc(N)c1-c1ccccc1`, the Inhibition is reported as 4.78%.

Regarding `c1ccc(Oc2ccc(-c3cc(N4CCOCC4)[nH]n3)cc2)cc1`, the Inhibition was 6.26%.

`CCOc1ccc2cc(-c3nn(CC4CCN(C)CC4)c4ncnc(N)c34)ccc2c1.Cl`: the Inhibition worked out at 5.65%.

`COc1ccccc1C(C)NCC(=O)Nc1cc(C(F)(F)F)ccc1Cl` (configuration not stated): the Inhibition was 6.23%.

Consider `Nc1ncc(-c2cn[nH]c2)cc1-c1nc2cc(Cl)cnc2[nH]1`, for which the Inhibition came to 13.92%.

Regarding `O=C(NCc1nnc2n1CCCCC2)c1ccc(-c2ccc(F)cc2)o1`, the Inhibition was 5.75%.

In the case of `COc1ccc(Nc2ccccc2NC(=O)c2ccc(O)nc2)cc1`, the Inhibition is given as 5.99%.

For the compound `COc1cc(CN2CCC3(C=Cc4ccccc43)CC2)cc2c1OCO2`, the Inhibition is recorded as 0.05%.

On to `COc1cccc2c(C)nc(N=C(N)N)nc12.O=C(O)C(F)(F)F.O=C(O)C(F)(F)F`, for which the Inhibition turned out to be 8.57%.

Take `CC(C)n1nc(-c2cc3c(Cl)cccc3[nH]2)c2c(N)ncnc21`: the Inhibition stood at 2.83%.

As for `O=C(CN1CCOCC1)Nc1ccc2ncnc(Nc3ccc(OCc4cccc(F)c4)c(Cl)c3)c2c1`, the Inhibition is 8.91%.

As to `CS(=O)(=O)N1CCC(CCn2nc(Cc3cccc4ccccc34)c3c(N)ncnc32)CC1`, the Inhibition is listed as 6.81%.

Consider `CC(C)(C)n1nc(-c2ccccc2)c2c(N)ncnc21`, for which the Inhibition turned out to be 6.94%.

Consider `CNC(=O)C1Cc2ccccc2N1C(=O)Cc1ccc(F)cc1` (configuration not stated), for which the Inhibition is listed as 8.68%.

For the compound `Nc1nccc2ccc(-c3ccc4nccn4c3)cc12`, the Inhibition is on record as 6.02%.

`O=C(C1CCN(c2cc(-n3cccc3)ncn2)CC1)N1CCc2ccccc2C1`: the Inhibition came to 0.82%.

`COc1cccn2c(C(=O)N3CCCCC3)c(C(F)(F)F)nc12`: the Inhibition is 11.51%.

With `COc1ccc(-c2nn(C(C)C)c3ncnc(N)c23)cc1OC`, the Inhibition is 7.44%.

Turning to `Cc1nn(C)cc1C(C)Nc1nncc(-c2ccc(C(F)(F)F)cc2)n1` (configuration not stated), the Inhibition is -2.54%.

In the case of `CC(C)(C)C(=O)N(CCCCCCN1C[C@H](O)[C@@H](O)[C@H](O)[C@H]1CO)C1CCCCCC1`, the Inhibition is listed as 12.26%.

In the case of `COC(=O)C1=C(C)NC(C)=C(C(=O)OC(C)C)C1c1cccc2nonc12` (configuration not stated) [ISRADIPINE], the Inhibition stood at 4.46%.

For `CC(=O)N(CCN(C(=O)c1ccc(F)cc1)c1ccccc1)c1ccccc1`, the Inhibition was found to be 8.94%.

For `CC(C)(C)OC(=O)N1CCN(c2cc(-c3ccc(Oc4ccccc4)cc3)n[nH]2)CC1`, the Inhibition is on record as 9.81%.

Regarding `CC(C)(C)c1ccc(N[C@@H]2CCCC[C@H]2NC(=O)c2ccco2)cc1`, the Inhibition turned out to be 1.71%.

Consider `CCOC(=O)c1c(NC(=O)c2c(F)c(F)c(F)c(F)c2F)sc(C(N)=O)c1C`, for which the Inhibition turned out to be 9.36%.

In the case of `N#Cc1ccc(-c2ccc(OCC(N)=O)cc2)cc1`, the Inhibition is given as 6.44%.

As to `Cl.c1ccc(C[C@@H]2CN(c3nccc(Oc4ccc(-n5ccnc5)cc4)n3)CCN2)cc1`, the Inhibition was determined as 9.29%.

Consider `COc1ccc(C2CC(c3cccs3)=NN2C(=O)c2ccco2)cc1OC` (configuration not stated), for which the Inhibition came to 11.65%.

On to `Clc1ccc(CN2CCN(C3=NCCN3)CC2)cc1Cl`, for which the Inhibition was determined as 14.57%.

On to `NC(=O)c1cc(-c2ccsc2)ccc1OCCOc1ccccc1`, for which the Inhibition is recorded as 13.51%.

Regarding `Cc1ccc2cc(C3NC(=O)c4ccccc4N3)c(Cl)nc2c1` (configuration not stated), the Inhibition was found to be 8.31%.

With `CC(=O)O.CC(=O)O.Nc1ncnc2c1ncn2[C@@H]1O[C@H](COS(=O)(=O)NC(=O)c2ccccc2O)[C@@H](O)[C@H]1O`, the Inhibition amounted to 10.79%.

For the compound `CCOc1ccccc1NC(C)C(=O)Nc1cc(C(F)(F)F)ccc1N1CCOCC1` (configuration not stated), the Inhibition was 10.91%.

As for `CCOc1ccc(-c2nc(CNCCc3ccc(F)cc3)cs2)cc1`, the Inhibition is -1.3%.

Consider `O=C(Nc1cccc(-c2ccc(NCCCN3CCCC3)nc2)c1)c1ccccc1`, for which the Inhibition is -5.25%.

As to `CCn1cnc2c(Nc3cc(F)cc(F)c3)nc(C#N)nc21`, the Inhibition was 3.78%.

Consider `CC(C)=CCC/C(C)=C\CNCCNC1C2CC3CC(C2)CC1C3` (configuration not stated), for which the Inhibition is 42.43%.

For `Cc1cc(O)nc(-n2nc(C)cc2C)n1`, the Inhibition worked out at 8.06%.

As to `Cc1nc(-c2cccc(NCc3ccccc3)c2)[nH]c1C`, the Inhibition was 15.36%.

As for `COc1ccc(-c2onc(C(F)(F)F)c2-c2ccc(Cl)cc2)c(O)c1`, the Inhibition is given as 6.3%.

Take `NCCC(O)C(=O)N[C@@H]1C[C@H](N)[C@@H](OC2O[C@H](CN)[C@@H](O)[C@H](O)[C@H]2O)[C@H](O)C1OC1O[C@H](CO)[C@@H](O)[C@H](N)[C@H]1O.O=S(=O)(O)O.O=S(=O)(O)O` (some centres not stated): the Inhibition is -1.98%.

For the compound `CC(Oc1cccc(Cl)c1)C(=O)Nc1ccc2oc(-c3ccncc3)nc2c1` (configuration not stated), the Inhibition was determined as 6.23%.

Turning to `CCOc1ccc(-c2nc(NC(=O)CS(=O)(=O)c3ccccc3)sc2C)cc1`, the Inhibition is given as 5.89%.

With `CNC(=O)C1Cc2c([nH]c3cc(Cl)ccc23)C2(CCN(CCc3ccccc3)CC2)N1` (configuration not stated), the Inhibition is listed as -7.17%.

For the compound `Cc1cc(NCC(C)C)c2[nH]nc(-c3ccccc3)c2n1`, the Inhibition was found to be 19.99%.

`CCCc1ccc(S(=O)(=O)Nc2ccc(CN3CCN(CC4CC4)CC3)cc2)cc1`: the Inhibition is 10.3%.

Regarding `COc1ccc(-c2nc(-c3cccc(NC(=O)Cc4ccc(F)cc4)c3)no2)cc1OC`, the Inhibition came out at 17.02%.

Turning to `CC1COC2(CCN(c3nc(=O)c4cc(C(F)(F)F)cc([N+](=O)[O-])c4s3)CC2)O1` (configuration not stated), the Inhibition is given as 7.79%.

With `Cc1nnc(NC(=O)c2cn(-c3ccccc3)nc2-c2ccccc2C)o1`, the Inhibition was determined as 10.29%.

`Cc1ccccc1C(=O)N1N=C(Nc2ccccc2)SC1(C)C`: the Inhibition is -6.25%.

As to `CC[C@H](CO)NCCN[C@H](CC)CO.Cl.Cl`, the Inhibition is recorded as 10.29%.

Consider `CC1CCCCN1C(=O)NCCc1coc(-c2ccc(F)cc2)n1` (configuration not stated), for which the Inhibition was determined as 12.51%.

`CCC(=O)Nc1ccccc1C(=O)Nc1ccccn1`: the Inhibition is on record as 10.62%.

For the compound `COc1cc(C2=NCCN2)ccc1-c1cn(-c2cccc(C3=NCCN3)c2)nn1`, the Inhibition was 13.79%.

With `COc1cccc(NC(=O)c2c(NC(=O)c3cccnc3)sc3c2CCC3)c1`, the Inhibition came to 11.92%.

Regarding `O=C(C1CCN(c2nnnn2-c2ccccc2)CC1)N1CCc2ccccc2C1`, the Inhibition is 7.15%.

As for `CNc1snc(C)c1C(=O)NCCOc1ccc(OC)cc1`, the Inhibition is on record as 13.43%.

For `CC(C)NCC(=O)Nc1cccc(C(=O)Nc2cccc(C(F)(F)F)c2)c1`, the Inhibition was found to be 12.44%.

Turning to `Cc1ccc(S(=O)(=O)Nc2ccc(CN3CCN(C(=O)c4cccc(C#N)c4)CC3)cc2)cc1`, the Inhibition is 7.03%.

With `Cc1noc(C)c1C(=O)N1CCCC(c2[nH]c3c(C)cccc3c2-c2ccncc2)C1` (configuration not stated), the Inhibition worked out at 0.36%.

On to `O=[N+]([O-])c1cn2c(n1)OC[C@@H](OCc1ccc(OC(F)(F)F)cc1)C2` [PRETOMANID], for which the Inhibition amounted to 6.12%.

Values taken from ChEMBL document CHEMBL4513149, “CO-ADD screening of MMV (CH) - MMV compounds” (2021).
